Data taken from paper PMC7786974.
Results are given in words; binding and its absence hold for the method and conditions named. Binding seen in cells or lysates may run through a third protein. Some entries that bind do so weakly or less than the wild type.

Sequences of proteins named here, by UniProt entry; tags and fusion partners are left off.
UniProt Q4JK59: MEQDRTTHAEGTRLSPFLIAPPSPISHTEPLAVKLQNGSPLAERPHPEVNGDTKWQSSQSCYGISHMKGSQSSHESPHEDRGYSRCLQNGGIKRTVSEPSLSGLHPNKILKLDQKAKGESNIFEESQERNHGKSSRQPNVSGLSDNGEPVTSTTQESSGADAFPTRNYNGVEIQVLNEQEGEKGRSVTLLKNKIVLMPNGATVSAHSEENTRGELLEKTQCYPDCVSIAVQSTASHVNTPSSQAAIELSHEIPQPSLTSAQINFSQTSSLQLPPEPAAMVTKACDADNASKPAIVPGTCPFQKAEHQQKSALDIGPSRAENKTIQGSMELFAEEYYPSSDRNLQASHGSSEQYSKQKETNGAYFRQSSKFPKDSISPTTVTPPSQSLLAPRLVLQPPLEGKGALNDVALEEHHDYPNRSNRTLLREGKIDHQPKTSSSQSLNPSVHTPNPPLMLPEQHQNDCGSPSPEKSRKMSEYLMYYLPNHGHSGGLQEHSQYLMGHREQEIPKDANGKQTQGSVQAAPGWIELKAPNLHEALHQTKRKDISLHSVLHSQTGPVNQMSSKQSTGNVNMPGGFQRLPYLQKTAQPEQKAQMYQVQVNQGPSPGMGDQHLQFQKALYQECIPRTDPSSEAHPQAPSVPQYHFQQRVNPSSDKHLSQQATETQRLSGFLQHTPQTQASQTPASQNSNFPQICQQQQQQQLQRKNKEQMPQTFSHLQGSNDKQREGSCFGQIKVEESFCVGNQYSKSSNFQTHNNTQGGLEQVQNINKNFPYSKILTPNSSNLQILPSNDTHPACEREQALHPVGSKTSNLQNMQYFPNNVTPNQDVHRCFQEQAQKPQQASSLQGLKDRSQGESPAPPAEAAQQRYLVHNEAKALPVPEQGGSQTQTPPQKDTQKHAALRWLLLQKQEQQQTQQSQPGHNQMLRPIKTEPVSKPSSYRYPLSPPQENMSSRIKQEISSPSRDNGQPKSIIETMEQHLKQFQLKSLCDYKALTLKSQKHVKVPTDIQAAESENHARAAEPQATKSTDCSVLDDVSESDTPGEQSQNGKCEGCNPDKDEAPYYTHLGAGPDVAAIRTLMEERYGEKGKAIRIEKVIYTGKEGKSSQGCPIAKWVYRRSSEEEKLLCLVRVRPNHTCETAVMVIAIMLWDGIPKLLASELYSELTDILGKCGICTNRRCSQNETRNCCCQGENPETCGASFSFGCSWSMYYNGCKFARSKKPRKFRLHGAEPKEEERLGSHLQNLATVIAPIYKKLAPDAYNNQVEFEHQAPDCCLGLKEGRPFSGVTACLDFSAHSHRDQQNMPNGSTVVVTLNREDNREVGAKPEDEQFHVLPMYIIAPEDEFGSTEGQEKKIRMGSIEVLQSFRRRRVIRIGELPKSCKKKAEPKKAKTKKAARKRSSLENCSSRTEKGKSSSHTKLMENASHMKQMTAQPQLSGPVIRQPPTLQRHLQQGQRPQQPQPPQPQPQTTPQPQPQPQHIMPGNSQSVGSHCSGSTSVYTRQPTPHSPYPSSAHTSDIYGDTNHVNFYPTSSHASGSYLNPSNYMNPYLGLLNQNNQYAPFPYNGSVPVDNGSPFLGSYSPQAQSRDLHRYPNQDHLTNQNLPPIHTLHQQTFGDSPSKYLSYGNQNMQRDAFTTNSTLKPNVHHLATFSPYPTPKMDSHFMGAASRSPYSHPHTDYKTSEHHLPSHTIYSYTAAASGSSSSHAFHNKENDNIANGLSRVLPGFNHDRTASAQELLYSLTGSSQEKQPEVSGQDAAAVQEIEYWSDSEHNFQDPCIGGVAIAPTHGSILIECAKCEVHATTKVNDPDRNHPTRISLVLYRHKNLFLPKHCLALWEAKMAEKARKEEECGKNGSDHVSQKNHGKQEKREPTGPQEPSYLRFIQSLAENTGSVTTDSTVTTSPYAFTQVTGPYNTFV
UniProt Q04207: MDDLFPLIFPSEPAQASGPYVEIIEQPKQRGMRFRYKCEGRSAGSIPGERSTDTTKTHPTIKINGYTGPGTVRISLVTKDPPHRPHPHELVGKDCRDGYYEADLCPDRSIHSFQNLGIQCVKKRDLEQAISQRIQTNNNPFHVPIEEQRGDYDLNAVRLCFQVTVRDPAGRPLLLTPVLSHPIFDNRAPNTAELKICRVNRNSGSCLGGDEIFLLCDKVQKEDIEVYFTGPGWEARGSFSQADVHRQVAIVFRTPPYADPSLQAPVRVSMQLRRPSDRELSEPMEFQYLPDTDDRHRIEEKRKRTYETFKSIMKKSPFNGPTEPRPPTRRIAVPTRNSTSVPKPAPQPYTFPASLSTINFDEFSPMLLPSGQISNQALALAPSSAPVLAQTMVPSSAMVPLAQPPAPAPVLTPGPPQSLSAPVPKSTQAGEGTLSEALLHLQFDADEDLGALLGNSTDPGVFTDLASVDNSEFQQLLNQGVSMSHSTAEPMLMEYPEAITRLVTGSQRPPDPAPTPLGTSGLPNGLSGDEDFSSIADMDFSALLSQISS

Molecular target: ten eleven translocation (TET) methylcytosine dioxygenase 2 (mouse (endogenous in mouse pup brain)) (UniProt Q4JK59)
Assay: co-IP; Pierce co-IP kit; rabbit anti-TET2 antibody immobilised on AminoLink Plus coupling resin, incubated with brain tissue lysate overnight; rabbit IgG as negative control; eluate probed by Western blot; mouse pups, sham and HI (brain collected 12 h after HI)

binding: binds
Substance: NF-κB subunit p65 (from UniProt Q04207 1-549)
